# Experimental data: PMC6977684
# The chains behind the UniProt entries cited, without tags or fusion partners.
# UniProt P15144: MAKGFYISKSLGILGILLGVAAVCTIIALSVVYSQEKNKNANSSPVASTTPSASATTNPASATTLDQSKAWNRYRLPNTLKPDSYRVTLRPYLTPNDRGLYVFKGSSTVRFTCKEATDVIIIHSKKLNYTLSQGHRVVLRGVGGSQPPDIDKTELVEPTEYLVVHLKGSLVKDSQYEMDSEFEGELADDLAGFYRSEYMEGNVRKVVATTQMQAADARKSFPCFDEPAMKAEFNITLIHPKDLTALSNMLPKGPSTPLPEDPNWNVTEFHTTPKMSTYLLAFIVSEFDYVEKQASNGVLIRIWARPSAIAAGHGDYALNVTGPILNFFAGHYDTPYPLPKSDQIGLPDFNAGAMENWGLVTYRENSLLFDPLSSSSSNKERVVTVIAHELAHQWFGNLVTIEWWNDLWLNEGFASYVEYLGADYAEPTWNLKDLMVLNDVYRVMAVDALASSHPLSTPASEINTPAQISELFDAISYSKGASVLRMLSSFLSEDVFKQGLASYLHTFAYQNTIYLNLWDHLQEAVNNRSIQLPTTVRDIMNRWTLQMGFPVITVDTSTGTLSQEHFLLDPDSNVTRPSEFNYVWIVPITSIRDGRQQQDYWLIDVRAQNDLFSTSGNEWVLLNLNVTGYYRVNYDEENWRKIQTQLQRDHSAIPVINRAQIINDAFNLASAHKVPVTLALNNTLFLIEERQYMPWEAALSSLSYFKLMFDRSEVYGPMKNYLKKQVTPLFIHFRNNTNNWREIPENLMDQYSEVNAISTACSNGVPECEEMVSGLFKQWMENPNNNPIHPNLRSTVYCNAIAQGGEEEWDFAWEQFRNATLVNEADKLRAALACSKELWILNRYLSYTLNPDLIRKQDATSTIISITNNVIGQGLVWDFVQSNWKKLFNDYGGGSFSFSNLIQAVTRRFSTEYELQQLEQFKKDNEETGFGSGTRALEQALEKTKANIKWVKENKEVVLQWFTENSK
# UniProt P27986: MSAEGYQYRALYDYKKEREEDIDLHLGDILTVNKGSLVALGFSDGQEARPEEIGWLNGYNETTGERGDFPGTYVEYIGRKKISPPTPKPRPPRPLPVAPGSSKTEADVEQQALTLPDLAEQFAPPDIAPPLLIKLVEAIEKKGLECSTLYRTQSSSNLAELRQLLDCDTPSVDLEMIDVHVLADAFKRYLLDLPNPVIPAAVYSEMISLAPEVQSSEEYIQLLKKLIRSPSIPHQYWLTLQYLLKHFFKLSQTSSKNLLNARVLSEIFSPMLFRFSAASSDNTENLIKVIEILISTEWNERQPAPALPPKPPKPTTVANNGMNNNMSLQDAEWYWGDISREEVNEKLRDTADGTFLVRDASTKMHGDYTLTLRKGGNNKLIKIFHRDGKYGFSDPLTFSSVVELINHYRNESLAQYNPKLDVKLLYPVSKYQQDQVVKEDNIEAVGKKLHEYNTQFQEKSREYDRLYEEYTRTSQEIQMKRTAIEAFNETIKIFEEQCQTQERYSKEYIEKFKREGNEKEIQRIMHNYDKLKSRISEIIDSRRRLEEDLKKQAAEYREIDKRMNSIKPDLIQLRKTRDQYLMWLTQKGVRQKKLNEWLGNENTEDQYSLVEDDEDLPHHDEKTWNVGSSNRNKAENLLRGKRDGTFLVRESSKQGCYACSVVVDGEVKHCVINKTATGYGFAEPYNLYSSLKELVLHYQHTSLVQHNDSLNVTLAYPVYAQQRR
# These are yes or no findings as the source states them, for the method shown. Binding seen in cells or lysates may run through a third protein. Some binding calls cover weakened binding; strength is not graded here. For some assays here: Where a sequence is shown, tags or fusion partners need not be part of it.
# T1: Flag-EMP3 (in MKN-45/DDP cells) (human) (UniProt P54852)
# T1 sequence: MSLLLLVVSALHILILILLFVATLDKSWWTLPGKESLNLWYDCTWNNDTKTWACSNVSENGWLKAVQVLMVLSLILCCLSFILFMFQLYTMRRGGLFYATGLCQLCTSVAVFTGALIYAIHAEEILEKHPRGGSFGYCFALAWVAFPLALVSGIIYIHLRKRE
# B1: Epithelial membrane protein 3 (protein, UniProt P54852 1-163)
# chain: T1 sequence
# Columns and labels:
# [1] = target: T1, Flag-EMP3 (in MKN-45/DDP cells) (human); test: co-IP; MKN-45/DDP cells, anti-Flag or anti-HA antibodies; also in Ubenimex-treated MKN-45/DDP cells (attenuated)
# [2] = target: CD13 (human (endogenous in MKN-45/DDP)) (UniProt P15144); test: co-IP; endogenous CD13 and EMP3 in MKN-45/DDP cells, precipitated with anti-CD13 or anti-EMP3; also in Ubenimex-treated MKN-45/DDP cells (association reduced)
Molecule,binding [1],binding [2]
HA-P85 (from UniProt P27986 1-724),binds,
B1,,binds
